Source: patent publication US20180280510A1 (CARNEGIE MELLON UNIVERSITY, published 2018)

Biological target: T1, epidermal growth factor receptor (EGFR) on A431 cells (human, UniProt P00533 25-1210)
T1 construct: whole, on cells; Endogenous receptor on A431 tumor cells; also called HER1; EGFR1
Assay: equilibrium binding fluorescence on A431 cells (cell surface Kd)

Binder	Kd [µM]
ZEGFR:1907-FAPdL5** (designed binder, also called AF; ZEGFR:1907 fusion probe AF) GPSKLAEAKYAKEMWAAWEEIRNLPNLTGWQMTAFIAKLVDDPSQSSELLSEAKKLNDSQAPKASGSTSGTQAVVTQEPSVTVSPGGTVILTCGSGTGAVTSGHYANWFQQKPGQAPRALIFDTDKKYSWTPGRFSGSLLGAKAALTISDAQPEDEAEYYCSLSDVDGYLFGGGTQLTVLSGGGGSGGGGSGGGGSGGGGSQAVVTQEPSVTVSPGGTVILTCGSGTGAVTSGHYANWFQQKPGQAPRALIFDTDKKYSWTPGRFSGSLLGAKAALTISDAQPEDEAEYYCSLSDVDGYLFGGGTQLTVLSLE	0.122
ZEGFR:1907-FAPdL5**-ZEGFR:1907 (designed binder, Single FAP flanked by two ZEGFR:1907 affibodies; also called AFA; ZEGFR:1907 fusion probe AFA) GPSKLAEAKYAKEMWAAWEEIRNLPNLTGWQMTAFIAKLVDDPSQSSELLSEAKKLNDSQAPKGSQAVVTQEPSVTVSPGGTVILTCGSGTGAVTSGHYANWFQQKPGQAPRALIFDTDKKYSWTPGRFSGSLLGAKAALTISDAQPEDEAEYYCSLSDVDGYLFGGGTQLTVLSGGGGSGGGGSGGGGSGGGGSQAVVTQEPSVTVSPGGTVILTCGSGTGAVTSGHYANWFQQKPGQAPRALIFDTDKKYSWTPGRFSGSLLGAKAALTISDAQPEDEAEYYCSLSDVDGYLFGGGTQLTVLSGTAEAKYAKEMWAAWEEIRNLPNLTGWQMTAFIAKLVDDPSQSSELLSEAKKLNDSQAPKLE	0.037
